Data on one molecule can be found in publication PMC11957390.

The test deals with T1, 2×Myc-LSDV012 (Lumpy skin disease virus).
T1 sequence: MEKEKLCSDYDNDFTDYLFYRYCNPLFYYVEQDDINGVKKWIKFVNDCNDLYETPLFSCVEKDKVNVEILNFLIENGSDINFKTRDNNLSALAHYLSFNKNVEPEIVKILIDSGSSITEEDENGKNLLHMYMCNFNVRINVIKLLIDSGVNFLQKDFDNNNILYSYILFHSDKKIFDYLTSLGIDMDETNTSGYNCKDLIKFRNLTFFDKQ
Description: affinity purification with mass spectrometry.

These are yes or no findings as the source states them, for the method shown. Binding seen in cells or lysates may run through a third protein. A yes stands for co-enrichment or nearness to the bait. Other partners may have been found. Where a sequence is shown, tags or fusion partners need not be part of it.

B1: bovine IFIT5 (endogenous, MDBK) (protein, UniProt F6QAR8 1-482)
chain: MSEIPKDCLKTILLELECHFTWNLLKEDIDLFDVEDTIGQQLEFLTTKSRLTLYNLLAYVKHLKGQNEDALKCLKQAEEIIRREHSDKEGVRSLVTWGNYAWVYYDMGQLKEAQKYIGKIGSVCKTLSSPSDYKLERPEIDCEKGWALLKFGGKYYQKAKAAFEKALEAEPDNPEFNIGYAITVYRLDDSDREGSIKSFSLGPLRKAVTLNPDNSYIKVFLALKLQDVHAEAEGEKYIEEILDQISAQPYVLRYAAKFYRRKNSWDKALELLKKALEVTPTSSFLHHQMGLCYRAQMIQIKKATRNRPKGKDKLKVDELITSAISHFKAAVERDSMFAFAYTDLANMYAEGGQYSNAEDIFQKALRLENITDDHKHQIHYHYGRFQEFHRKSENTAIHHYLEALKVKDRSSLRPKLTSALKKLATKRLGYNASDVQSLSALGFVYKLEGEKRQAAEYYERAQKIDPENAEFLTALCELRLSI
Turning to B1, the binding entry is given as “binds”.
